## Library screening results

The chains behind the UniProt entries cited, without tags or fusion partners.
UniProt E9BF75, entry or part of it: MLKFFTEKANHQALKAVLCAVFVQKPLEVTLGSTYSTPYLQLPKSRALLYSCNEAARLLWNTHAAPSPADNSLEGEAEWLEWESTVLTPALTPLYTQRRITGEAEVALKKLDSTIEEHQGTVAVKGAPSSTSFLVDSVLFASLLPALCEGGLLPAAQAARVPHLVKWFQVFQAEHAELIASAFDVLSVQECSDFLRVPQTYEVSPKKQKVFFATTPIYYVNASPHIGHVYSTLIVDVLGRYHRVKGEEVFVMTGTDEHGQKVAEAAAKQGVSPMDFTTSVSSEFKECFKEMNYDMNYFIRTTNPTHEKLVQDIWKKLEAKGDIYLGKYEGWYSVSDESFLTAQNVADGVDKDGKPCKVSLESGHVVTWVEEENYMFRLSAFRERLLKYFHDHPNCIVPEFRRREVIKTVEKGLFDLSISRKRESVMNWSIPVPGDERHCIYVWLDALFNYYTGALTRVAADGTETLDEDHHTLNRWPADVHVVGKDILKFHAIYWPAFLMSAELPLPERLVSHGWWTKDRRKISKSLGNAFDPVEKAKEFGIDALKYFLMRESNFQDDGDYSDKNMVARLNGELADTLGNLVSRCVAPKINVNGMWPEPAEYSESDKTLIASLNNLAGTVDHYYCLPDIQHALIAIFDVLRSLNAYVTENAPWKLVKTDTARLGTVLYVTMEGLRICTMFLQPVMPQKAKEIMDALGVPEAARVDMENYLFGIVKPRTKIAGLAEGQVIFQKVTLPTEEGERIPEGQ

Measurements from “University of Dundee, Small-Polar-MMV Screening Library” (2021), ChEMBL document CHEMBL3988442.

LdMetRS: 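Methionyl-tRNA synthetase (putative), Leishmania donovani (UniProt E9BF75). Primary screen of methionyl-tRNA synthetase; the read-out is not stated. The test concentration is not given. The values are filed as inhibition. Of about 68,000 compounds tested this way, about 24 (0.035%) reached 50% or more in at least one test.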
Mtb heat-shock: 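Assay on Mycobacterium tuberculosis, filed only as a heat shock assay from Cornell; the read-out is not stated. The concentration is filed as 10 mM, unlikely as a test dose, so the dose is not known. Higher reads as stronger inhibition (inferred: compounds with an IC50 in retests scored well above the rest). Size under these conditions: about 69,000 compounds, about 930 of them at 50% or above in at least one test.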

Results are percentages, as filed.
How 0% and 100% were set is not recorded. Most values in the screen are low, and negative values occur.
The compounds are a random part of those screened.
A dash means the value is not listed here; it may have been measured.

| # | structure | LdMetRS | Mtb heat-shock |
|---|---|---|---|
| 1 | `CS(=O)(=O)NCCCNC(=O)c1cccnc1O` | 6.667 | 15.05 |
| 2 | `CC(C)c1cnc(CN(C)C2CCN(CCc3ccncc3)C2)o1` (stereo not shown) | 7.652 | -24.26 |
| 3 | `CCc1ccc(CC(=O)N2CCN(c3nccn3C)CC2)cc1` | 14.65 | 16.32 |
| 4 | `O=C(CCc1nc(C2CC2)no1)c1ccc2c(c1)OCCO2` | 12.11 | 18.01 |
| 5 | `CCc1ccc(CN(Cc2ccccc2)CC(C)CO)nc1` (stereo not shown) | 16.09 | 3.408 |
| 6 | `O=C1CCCC2=C1C(c1cc(Cl)ccc1F)Nc1nonc1N2` (stereo not shown) | 16.17 | 6.886 |
| 7 | `Cc1nn2cccnc2c1C(=O)NCc1ccccc1OCC1CC1` | 18.82 | -4.878 |
| 8 | `Cc1cccc2c1CCN(c1cc(N3CCCC3CO)ncn1)C2` (stereo not shown) | 14.78 | 20.18 |
| 9 | `Fc1ccc(CN2CCC3(CCN(Cc4nccs4)CC3)C2)cc1.O=C(O)C(F)(F)F.O=C(O)C(F)(F)F` | - | 11.7 |
| 10 | `COc1ccc(C2CNCCN2C(=O)c2nccc3ccccc23)cc1` (stereo not shown) | 5.851 | 9.774 |
| 11 | `COCc1ncc(CN2C[C@@H](C(=O)O)[C@H](C(C)C)C2)cn1` | 5.645 | -20.25 |
| 12 | `[H][C@]12CC[C@]([H])(CN(Cc3cccnc3)C1)N(C(=O)c1ccnc(N)c1)C2` | - | -21.98 |
| 13 | `O=C(O)C(F)(F)F.[H][C@@]12OCCN(C(=O)c3ccc(C)o3)[C@@]1([H])CC[C@@H]2OCc1ccccn1` | - | -16.89 |
| 14 | `O=C(c1ccno1)N1CCC2(CC1)C(=O)Nc1ccccc12` | -2.405 | -5.95 |
| 15 | `[H][C@@]12CN(S(=O)(=O)c3ccccc3)C[C@]1([H])OCC(=O)N2CC1CCCCC1` | - | -9.013 |
| 16 | `CN(C(=O)c1cc(F)ccc1F)[C@@H]1CC[C@@H](O)[C@@H]1O` | 12.07 | 10.84 |
| 17 | `CCC(CC)(CC)NC(=O)Nc1nnc(-c2ccccn2)s1` | 15.62 | 11.09 |
| 18 | `O=S(=O)(NCC1(c2cccs2)CCCC1)c1cccnc1` | 4.802 | -11.67 |
| 19 | `O=C(NCC1(O)CCOC1)NCC1(c2ccccc2Cl)CCC1` (stereo not shown) | 11.17 | 6.643 |
| 20 | `[H][C@@]12CCN(C(=O)CC(C)(C)C)C[C@]1([H])CCN(CCc1c[nH]cn1)C(=O)C2` | - | -13.08 |
| 21 | `Cc1cccn2c(=O)cc(OC(=O)c3ccccc3Cl)nc12` | 10.5 | -4.825 |
| 22 | `Cc1csc(N2CCN(C(=O)Cc3cccs3)CC2)n1` | 15.64 | -2.073 |
| 23 | `Cc1cnc2[nH]c(C(F)(F)F)c(CN3CCSCC3)c2c1` | 13.83 | 13.99 |
| 24 | `CS(=O)(=O)N[C@H]1CCO[C@]2(CCN(C(=O)c3ccccn3)C2)C1.O=C(O)C(F)(F)F` | - | 72.36 |
| 25 | `CN(C)CC(Nc1nc(N)nc2c1CCNCC2)c1ccccc1` (stereo not shown) | 7.396 | 6.292 |
| 26 | `O=S(=O)(Nc1cnc(N2CCOCC2)nc1)c1ccc(Cl)cc1` | 9.317 | -8.89 |
| 27 | `CN(Cc1cc2n(n1)CCCNC2)Cc1cc(-c2ccncc2)no1` | -13.53 | -27.43 |
| 28 | `NC(=O)c1ccn(COc2ccccc2Cl)n1` | 7.311 | 9.262 |
| 29 | `CCN1CCN(C(=O)c2ccc(Cn3ccccc3=O)o2)CC1` | 16.83 | -4.447 |
| 30 | `Cc1ccc(OC2CCN(C(=O)Cc3c(C)[nH]c(=O)[nH]c3=O)CC2)cc1` | 16.17 | -0.475 |
| 31 | `Cn1cc(C(=O)Nc2cc(F)ccc2OCC2CCCO2)ccc1=O` (stereo not shown) | 23.3 | 1.467 |
| 32 | `c1ccc(CN2CCC(NCCc3ccc4c(c3)CCO4)CC2)nc1` | 3.495 | -21.6 |
| 33 | `[H][C@@]12CCN(C(=O)c3cscn3)[C@]1([H])CN(S(C)(=O)=O)C2` | - | 20.15 |
| 34 | `CC(C)Cc1ncc2c(n1)CN(C(=O)c1ccc(Cn3ccnc3)o1)C2` | 10.61 | -3.049 |
| 35 | `CCCN(CCc1ccccc1)C(=O)c1ccccc1NCC(=O)O` | 7.843 | 9.924 |
| 36 | `[H][C@@]12CN(C(=O)c3cccn3C)C[C@]1([H])C(=O)N(CCN1CCCC1)C2` | - | 3.698 |
| 37 | `O=C(O)[C@]12CCCN(Cc3cccnc3)[C@@H]1CCN(c1cnccn1)C2` | 1.676 | - |
| 38 | `CC(C)c1nsc(N2CCc3sccc3C2)n1` | 5.797 | 7.859 |
| 39 | `Cc1nc2ncnn2c2ccn(-c3cccnc3O)c(=O)c12` | 5.944 | -7.798 |
| 40 | `CO[C@@H]1CCN(S(=O)(=O)N(C)C)[C@@H]2CN(Cc3cccnc3)C[C@@H]21` | 13.59 | - |
| 41 | `[H][C@]12CCC(=O)N(C)[C@@]1(C)CCCCN2C(=O)CCc1cccnc1` | - | -3.457 |
| 42 | `CCC(NC(=O)c1ccc2[nH]ccc2c1)C(=O)N1CCOCC1` (stereo not shown) | 2.419 | -32.97 |
| 43 | `NC(=O)CNC(=O)c1cc(Cn2cnc3ccccc32)[nH]n1` | 16.01 | -101.1 |
| 44 | `[H][C@@]12CNC(=O)N1CCN(C1CCN(C)CC1)C2` | - | -5.691 |
| 45 | `COc1ccc(CN(C)[C@@H]2CN(C(=O)c3cccnc3)C[C@H]2O)cc1` | 18.23 | -14.36 |
| 46 | `CC(=O)NCCNC(=O)c1nc(C2CC2)n(-c2ccccc2Cl)n1` | 12.94 | 5.395 |
| 47 | `c1ccc(C2CCN(c3ncnc4c3CCNC4)CC2)cc1` | 23.86 | 20.98 |
| 48 | `CC(CN1CCOCC1)NC(=O)Nc1cccnc1-n1cccn1` (stereo not shown) | 8.625 | 8.906 |
| 49 | `CC(C)(C)c1cc(=O)[nH]c(C2(N)CCCCC2)n1` | 20.24 | - |
| 50 | `CC(C)CNC(=O)c1nc2c(s1)CCN(C(=O)c1ccc(Cl)cc1)CC2` | 17.78 | -20.26 |
| 51 | `COCC(=O)N1CCN(C(=O)Cc2cccs2)[C@H]2CS(=O)(=O)C[C@H]21` | 9.034 | - |
| 52 | `Cc1cccc(CN2CCCn3c(nnc3Cn3cccn3)C2)n1` | 1.25 | - |
| 53 | `Cn1cc(C(=O)CC2CCCN2C(=O)c2ccn3ccnc3c2)cn1` (stereo not shown) | 10.43 | 10.33 |
| 54 | `CN(C)Cc1cc(C2CCN(C(=O)C3CCCNC3)CC2)nn1C.Cl` (stereo not shown) | - | -6.1 |
| 55 | `Cc1cc(C(=O)NCc2ccc(F)cc2)c2c(C3CCNC3)noc2n1` (stereo not shown) | 9.714 | -13.2 |
| 56 | `Cc1ccc(C2CSCCN2CCS(C)(=O)=O)cc1` (stereo not shown) | 15.5 | 1.324 |
| 57 | `CS(=O)(=O)N1CCOCC2(CN(Cc3ccsc3)CCO2)C1` (stereo not shown) | 16.5 | - |
| 58 | `CC1CN(C(=O)NCCNc2cnccn2)CCO1` (stereo not shown) | 6.838 | -13.79 |
| 59 | `COc1ccc(C(=O)CCC(=O)NCc2c(C)noc2C)cc1F` | 6.46 | -11.52 |
| 60 | `CN1C(=O)C(c2ccccc2)CC12CCN(CCO)CC2` (stereo not shown) | 1.37 | - |
| 61 | `c1cncc(-c2nc3c(c(NCC4(c5ccncc5)CC4)n2)CCC3)c1` | 4.381 | -38.69 |
| 62 | `COc1ccc(SC(C)C(=O)N2CCC(NC(=O)C3CC3)CC2)cc1` (stereo not shown) | 6.964 | 18.31 |
| 63 | `CN1C(=O)C(c2cccnc2)CC12CCN(Cc1nccs1)CC2` (stereo not shown) | 4.372 | -7.158 |
| 64 | `CC(=O)N1CCc2c(nc(N(C)C)nc2NCCc2cccs2)C1` | 11.17 | 53.71 |

For reference, 5 entries once more:

{"structure": "CC(CN1CCOCC1)NC(=O)Nc1cccnc1-n1cccn1", "stereo": "stereo not shown", "LdMetRS": 8.625, "Mtb heat-shock": 8.906}
{"structure": "CC(C)(C)c1cc(=O)[nH]c(C2(N)CCCCC2)n1", "LdMetRS": 20.24}
{"structure": "CN(C)Cc1cc(C2CCN(C(=O)C3CCCNC3)CC2)nn1C.Cl", "stereo": "stereo not shown", "Mtb heat-shock": -6.1}
{"structure": "CN(C(=O)c1cc(F)ccc1F)[C@@H]1CC[C@@H](O)[C@@H]1O", "LdMetRS": 12.07, "Mtb heat-shock": 10.84}
{"structure": "CN(Cc1cc2n(n1)CCCNC2)Cc1cc(-c2ccncc2)no1", "LdMetRS": -13.53, "Mtb heat-shock": -27.43}